Some entries share one result that the patent states for a list of compounds.
These compounds were tested against T1, human histamine H3 receptor (Homo sapiens, UniProt Q9Y5N1) (assay: Histamine H3 functional antagonist assay ([35S]GTPγS SPA on membranes)). Settings: membranes of CHO K1 cells expressing human histamine H3; histamine 0.3 μM.
T1 construct: expressed in transfected cells; host or cells: CHO K1 cells carrying the pSwitch regulatory plasmid, transfected with pGeneH3, induced with mifepristone; clone 3H3
Format: biochemical

Sequences of proteins named here, by UniProt entry; tags and fusion partners are left off. A change or cut given only in a name is not applied to a line headed by its entry.
UniProt Q9Y5N1: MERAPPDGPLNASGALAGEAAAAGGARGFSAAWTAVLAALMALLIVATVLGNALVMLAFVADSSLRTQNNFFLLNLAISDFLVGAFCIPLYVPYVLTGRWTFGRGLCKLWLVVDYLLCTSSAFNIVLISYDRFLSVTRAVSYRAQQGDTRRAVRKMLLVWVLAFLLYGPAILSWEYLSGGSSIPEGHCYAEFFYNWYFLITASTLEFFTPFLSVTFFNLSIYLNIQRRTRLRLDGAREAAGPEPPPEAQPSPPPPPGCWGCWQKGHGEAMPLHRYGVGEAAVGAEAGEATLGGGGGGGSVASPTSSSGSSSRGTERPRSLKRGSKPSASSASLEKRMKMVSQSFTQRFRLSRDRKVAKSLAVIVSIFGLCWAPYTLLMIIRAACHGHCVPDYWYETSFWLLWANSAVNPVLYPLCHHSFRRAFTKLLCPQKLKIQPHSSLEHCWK

Antagonism (pKb), > 6.5 pKb:
N#Cc1ccc2c(c1)CN(C(=O)Nc1ccc3c(c1)CCN(C1CCC1)CC3)C2 [Example 175, 5-Cyano-N-(3-cyclobutyl-2,3,4,5-tetrahydro-1H-3-benzazepin-7-yl)-1,3-dihydro-2H-isoindole-2-carboxamide]
O=C(Nc1ccc2c(c1)CCN(C1CCC1)CC2)c1ccc(-c2cnccn2)cc1 [Example 46, N-(3-Cyclobutyl-2,3,4,5-tetrahydro-1H-3-benzazepin-7-yl)-4-(2-pyrazinyl)benzamide]
O=C(Nc1ccc2c(c1)CCN(C1CCC1)CC2)C1CCOCC1 [Example 3, N-(3-Cyclobutyl-2,3,4,5-tetrahydro-1H-3-benzazepin-7-yl)tetrahydro-2H-pyran-4-carboxamide]
O=C(Nc1ccc2c(c1)CCN(C1CCC1)CC2)c1ccc(-c2cncnc2)cc1 [Example 29, N-(3-Cyclobutyl-2,3,4,5-tetrahydro-1H-3-benzazepin-7-yl)-4-(5-pyrimidinyl)benzamide]
O=C(Nc1ccc2c(c1)CCN(C1CCC1)CC2)c1ccc(-c2cn3ccccc3n2)cc1 [Example 16, N-(3-Cyclobutyl-2,3,4,5-tetrahydro-1H-3-benzazepin-7-yl)-4-imidazo[1,2-a]pyridin-2-ylbenzamide]
O=C(Nc1ccc2c(c1)CCN(C1CCC1)CC2)c1ccc2ncsc2c1.O=C(O)C(F)(F)F [Example 229, N-(3-Cyclobutyl-2,3,4,5-tetrahydro-1H-3-benzazepin-7-yl)-1,3-benzothiazole-6-carboxamide trifluoroacetate]
COc1ccc(-c2[nH]nc(C)c2C(=O)Nc2ccc3c(c2)CCN(C2CCC2)CC3)cc1.O=C(O)C(F)(F)F [Example 195, N-(3-Cyclobutyl-2,3,4,5-tetrahydro-1H-3-benzazepin-7-yl)-3-methyl-5-[4-(methyloxy)phenyl]-1H-pyrazole-4-carboxamide trifluoroacetate]
O=C(Nc1ccc2c(c1)CCN(C1CCC1)CC2)c1ccc2c(c1)OCCO2.O=C(O)C(F)(F)F [Example 245, N-(3-Cyclobutyl-2,3,4,5-tetrahydro-1H-3-benzazepin-7-yl)-2,3-dihydro-1,4-benzodioxin-6-carboxamide trifluoroacetate]
Cc1ccccc1C(=O)Nc1ccc2c(c1)CCN(C1CCC1)CC2 [Example 25, N-(3-Cyclobutyl-2,3,4,5-tetrahydro-1H-3-benzazepin-7-yl)-2-methylbenzamide]
N#Cc1ccc2c(c1)CCN2C(=O)Nc1ccc2c(c1)CCN(C1CCC1)CC2 [Example 162, 5-Cyano-N-(3-cyclobutyl-2,3,4,5-tetrahydro-1H-3-benzazepin-7-yl)-2,3-dihydro-1H-indole-1-carboxamide]
O=C(Nc1ccc2c(c1)CCN(C1CCC1)CC2)c1ccc(-n2cncn2)cn1 [Example 110, N-(3-Cyclobutyl-2,3,4,5-tetrahydro-1H-3-benzazepin-7-yl)-5-(1H-1,2,4-triazol-1-yl)-2-pyridinecarboxamide]
CN(C(=O)c1ccc(-c2ccccn2)cc1)c1ccc2c(c1)CCN(C1CCC1)CC2 [Example 126, N-(3-Cyclobutyl-2,3,4,5-tetrahydro-1H-3-benzazepin-7-yl)-N-methyl-4-(2-pyridinyl)benzamide]
CC(C)n1nnc2cc(C(=O)Nc3ccc4c(c3)CCN(C3CCC3)CC4)ccc21.O=C(O)C(F)(F)F [Example 187, N-(3-Cyclobutyl-2,3,4,5-tetrahydro-1H-3-benzazepin-7-yl)-1-(1-methylethyl)-1H-1,2,3-benzotriazole-5-carboxamide trifluoroacetate]
Cc1ccc(-n2nc(C)c(C(=O)Nc3ccc4c(c3)CCN(C3CCC3)CC4)n2)cc1.Cl [Example 269, N-(3-Cyclobutyl-2,3,4,5-tetrahydro-1H-3-benzazepin-7-yl)-5-methyl-2-(4-methylphenyl)-2H-1,2,3-triazole-4-carboxamide hydrochloride]
O=C(Nc1ccc2c(c1)CCN(C1CCC1)CC2)c1ccc(-n2cccn2)cn1 [Example 108, N-(3-Cyclobutyl-2,3,4,5-tetrahydro-1H-3-benzazepin-7-yl)-5-(1H-pyrazol-1-yl)-2-pyridinecarboxamide]
N#Cc1ccc(-n2cc(C(=O)Nc3ccc4c(c3)CCN(C3CCC3)CC4)c(C(F)(F)F)n2)cc1.O=C(O)C(F)(F)F [Example 218, 1-(4-Cyanophenyl)-N-(3-cyclobutyl-2,3,4,5-tetrahydro-1H-3-benzazepin-7-yl)-3-(trifluoromethyl)-1H-pyrazole-4-carboxamide trifluoroacetate]
COc1cccc(-c2nn(-c3ccccc3)cc2C(=O)Nc2ccc3c(c2)CCN(C2CCC2)CC3)c1.O=C(O)C(F)(F)F [Example 197, N-(3-Cyclobutyl-2,3,4,5-tetrahydro-1H-3-benzazepin-7-yl)-3-[3-(methyloxy)phenyl]-1-phenyl-1H-pyrazole-4-carboxamide trifluoroacetate]
O=C(Nc1ccc2c(c1)CCN(C1CCC1)CC2)N1CCc2cccnc21 [Example 174, N-(3-Cyclobutyl-2,3,4,5-tetrahydro-1H-3-benzazepin-7-yl)-2,3-dihydro-1H-pyrrolo[2,3-b]pyridine-1-carboxamide]
N#Cc1ccc2c(c1)OCCN2C(=O)Nc1ccc2c(c1)CCN(C1CCC1)CC2 [Example 172, 7-Cyano-N-(3-cyclobutyl-2,3,4,5-tetrahydro-1H-3-benzazepin-7-yl)-2,3-dihydro-4H-1,4-benzoxazine-4-carboxamide]
CC(C)n1c(C(F)(F)F)nc2cc(C(=O)Nc3ccc4c(c3)CCN(C3CCC3)CC4)ccc21.O=C(O)C(F)(F)F [Example 188, N-(3-Cyclobutyl-2,3,4,5-tetrahydro-1H-3-benzazepin-7-yl)-1-(1-methylethyl)-2-(trifluoromethyl)-1H-benzimidazole-5-carboxamide trifluoroacetate]
O=C(Nc1ccc2c(c1)CCN(C1CCC1)CC2)c1ccc(C(F)(F)F)nc1 [Example 41, N-(3-Cyclobutyl-2,3,4,5-tetrahydro-1H-3-benzazepin-7-yl)-6-(trifluoromethyl)nicotinamide]
CS(=O)(=O)c1ccc(C(=O)Nc2ccc3c(c2)CCN(C2CCC2)CC3)cc1 [Example 30, N-(3-Cyclobutyl-2,3,4,5-tetrahydro-1H-3-benzazepin-7-yl)-4-(methylsulfonyl)benzamide]
O=C(Nc1ccncc1)Nc1ccc2c(c1)CCN(C1CCC1)CC2 [Example 138, N-(3-Cyclobutyl-2,3,4,5-tetrahydro-1H-3-benzazepin-7-yl)-N′-4-pyridinylurea]
O=C(Nc1ccc2c(c1)CCN(C1CCC1)CC2)c1cccc(Oc2ccccc2)c1.O=C(O)C(F)(F)F [Example 248, N-(3-Cyclobutyl-2,3,4,5-tetrahydro-1H-3-benzazepin-7-yl)-3-(phenyloxy)benzamide trifluoroacetate]
Cn1nc(C(C)(C)C)cc1C(=O)Nc1ccc2c(c1)CCN(C1CCC1)CC2.O=C(O)C(F)(F)F [Example 198, N-(3-Cyclobutyl-2,3,4,5-tetrahydro-1H-3-benzazepin-7-yl)-3-(1,1-dimethylethyl)-1-methyl-1H-pyrazole-5-carboxamide trifluoroacetate]
O=C(Nc1ccc2c(c1)CCN(C1CCC1)CC2)N1CCC(c2ccccc2)CC1 [Example 151, N-(3-Cyclobutyl-2,3,4,5-tetrahydro-1H-3-benzazepin-7-yl)-4-phenyl-1-piperidinecarboxamide]
N#Cc1cccc(-c2ccc(C(=O)Nc3ccc4c(c3)CCN(C3CCC3)CC4)cn2)c1 [Example 101, 6-(3-Cyanophenyl)-N-(3-cyclobutyl-2,3,4,5-tetrahydro-1H-3-benzazepin-7-yl)-3-pyridinecarboxamide]
O=C(Nc1ccc2c(c1)CCN(C1CCC1)CC2)c1ccc(-n2cccn2)cc1 [Example 89, N-(3-Cyclobutyl-2,3,4,5-tetrahydro-1H-3-benzazepin-7-yl)-4-(1H-pyrazol-1-yl)benzamide]
O=C(Nc1ccc2c(c1)CCN(C1CCC1)CC2)c1cnn(-c2ccc(Cl)cc2)c1C(F)(F)F.O=C(O)C(F)(F)F [Example 186, 1-(4-Chlorophenyl)-N-(3-cyclobutyl-2,3,4,5-tetrahydro-1H-3-benzazepin-7-yl)-5-(trifluoromethyl)-1H-pyrazole-4-carboxamide trifluoroacetate]
O=C(Nc1ccc2c(c1)CCN(C1CCC1)CC2)c1ccc(=O)[nH]c1 [Example 80, N-(3-Cyclobutyl-2,3,4,5-tetrahydro-1H-3-benzazepin-7-yl)-6-oxo-1,6-dihydro-3-pyridinecarboxamide]
Cn1nnc2cc(C(=O)Nc3ccc4c(c3)CCN(C3CCC3)CC4)ccc21.O=C(O)C(F)(F)F [Example 201, N-(3-Cyclobutyl-2,3,4,5-tetrahydro-1H-3-benzazepin-7-yl)-1-methyl-1H-1,2,3-benzotriazole-5-carboxamide trifluoroacetate]
Cn1c(C(=O)Nc2ccc3c(c2)CCN(C2CCC2)CC3)cc2ccccc21.O=C(O)C(F)(F)F [Example 240, N-(3-Cyclobutyl-2,3,4,5-tetrahydro-1H-3-benzazepin-7-yl)-1-methyl-1H-indole-2-carboxamide trifluoroacetate]
O=C(Nc1ccc2c(c1)CCN(C1CCC1)CC2)c1cc2cccnc2nc1C(F)(F)F [Example 35, N-(3-Cyclobutyl-2,3,4,5-tetrahydro-1H-3-benzazepin-7-yl)-2-(trifluoromethyl)-1,8-naphthyridine-3-carboxamide]

Source: US20070060566A1, “Benzazepine derivatives as histamine h3 antagonists” (priority 2003, published 2007)
